Measurements published in publication PMC10763471.
Results are given in words; binding and its absence hold for the method and conditions named. Binding seen in cells or lysates may run through a third protein. Some binding calls cover weakened binding; strength is not graded here. Where a sequence is shown, tags or fusion partners need not be part of it.

Sequences of proteins named here, by UniProt entry; tags and fusion partners are left off.
UniProt P61244: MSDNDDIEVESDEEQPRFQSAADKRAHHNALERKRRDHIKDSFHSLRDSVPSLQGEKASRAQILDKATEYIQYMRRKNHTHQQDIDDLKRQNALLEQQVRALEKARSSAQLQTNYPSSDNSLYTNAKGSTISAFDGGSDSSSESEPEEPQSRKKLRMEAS

T1: MYCT1 (MYC target 1) (human) (UniProt Q8N699)
T1 sequence: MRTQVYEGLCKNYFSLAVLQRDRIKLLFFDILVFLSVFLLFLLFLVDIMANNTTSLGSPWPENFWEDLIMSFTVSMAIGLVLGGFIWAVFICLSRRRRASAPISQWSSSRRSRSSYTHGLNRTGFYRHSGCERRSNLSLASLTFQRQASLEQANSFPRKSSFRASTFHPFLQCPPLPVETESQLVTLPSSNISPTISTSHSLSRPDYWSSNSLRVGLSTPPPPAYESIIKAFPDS


Experiments:
[1] = target: T1, MYCT1 (MYC target 1) (human); assay: co-IP; cell lysates of DLBCL and HEK293T cells; precleared with agarose beads and IgG; target antibody (anti-MAX or anti-MYCT1) or IgG overnight at 4 °C, agarose beads, PBS washes, immunoblot
[2] = target: MAX (MYC associated factor X) (human) (UniProt P61244); assay: as above

| Molecule | binding [1] | binding [2] |
| --- | --- | --- |
| MAX (MYC associated factor X) (from UniProt P61244 1-160) | binds | – |
| MYCT1 (MYC target 1) (protein, UniProt Q8N699 1-235) MRTQVYEGLCKNYFSLAVLQRDRIKLLFFDILVFLSVFLLFLLFLVDIMANNTTSLGSPWPENFWEDLIMSFTVSMAIGLVLGGFIWAVFICLSRRRRASAPISQWSSSRRSRSSYTHGLNRTGFYRHSGCERRSNLSLASLTFQRQASLEQANSFPRKSSFRASTFHPFLQCPPLPVETESQLVTLPSSNISPTISTSHSLSRPDYWSSNSLRVGLSTPPPPAYESIIKAFPDS | – | binds |
